Assay results published in the supplement of paper PMC8975748.
Structures can show the parent of a compound that is named as a salt. ± gives the standard deviation of the averaged measurements. Some of the results follow. These are raw signals, not scaled to a control.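 A single yeast strain with four plasmids, each encoding a fluorescent protein and an amino-acid or uracil biosynthesis gene, seeds the community. Stochastic plasmid loss yields mixed prototroph and auxotroph subpopulations. Fixed cells were counted via automated confocal fluorescence imaging; DMSO-treated wells were the vehicle reference.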

System: Saccharomyces cerevisiae BY4741 SeMeCo community
Assay: imaged cell count per well (cells); higher = more cells
Conditions: 10 µM; 24 h; SM minimal medium
Protocol: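 Same SeMeCo high-content imaging drug screen: Selleck FDA-approved drugs at 10 µM, 24 h in SM medium, 384-well plates, 3 replicates.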

| SMILES | imaged cell count per well |
| --- | --- |
| CC(C)n1c(/C=C/C(O)CC(O)CC(=O)O)c(-c2ccc(F)cc2)c2ccccc21 (configuration not stated) [Fluvastatin Sodium] | 2970 ± 510 |
| C[C@]1(Cn2ccnn2)[C@H](C(=O)O)N2C(=O)C[C@H]2S1(=O)=O [Tazobactam] | 21600 ± 13000 |
| CC1(C)S[C@@H]2[C@H](NC(=O)[C@H](N)c3ccccc3)C(=O)N2[C@H]1C(=O)OCOC(=O)[C@@H]1N2C(=O)C[C@H]2S(=O)(=O)C1(C)C [Sultamicillin] | 23500 ± 3400 |
| CN1C(C(=O)Nc2ccccn2)=C(O)c2sc(Cl)cc2S1(=O)=O [Lornoxicam] | 26000 ± 7000 |
| COc1cccc2c1C(=O)c1c(O)c3c(c(O)c1C2=O)C[C@@](O)(C(=O)CO)C[C@@H]3O[C@H]1C[C@H](N)[C@@H](O)[C@H](C)O1 [Epirubicin HCl] | 21400 ± 7200 |
| CCCCCCCCc1ccc(CCC(N)(CO)CO)cc1 [Fingolimod] | 29000 ± 5600 |
| NC(=O)Cc1cccc(C(=O)c2ccccc2)c1N [Nepafenac] | 28700 ± 5200 |
| CCOC(=O)C1=C(C)NC(C)=C(C(=O)OCC)C1c1ccccc1/C=C/C(=O)OC(C)(C)C [Lacidipine] | 22100 ± 6300 |
| CNS(=O)(=O)Cc1ccc2[nH]cc(CCN(C)C)c2c1 [Sumatriptan Succinate] | 22700 ± 2000 |
| O=C(CCCN1CCC(O)(c2ccc(Cl)cc2)CC1)c1ccc(F)cc1 [Haloperidol] | 24700 ± 7500 |
| CC[N+](CC)(CC)CC [Tetraethylammonium bromide] | 19600 ± 1900 |
| CC(=O)NC[C@H]1CN(c2ccc(N3CCOCC3)c(F)c2)C(=O)O1 [Linezolid] | 21700 ± 4400 |
